The chains behind the UniProt entries cited, without tags or fusion partners. Where a name states a change or a piece, a line headed by the entry shows the natural chain unless it says otherwise.
UniProt Q9JJT9: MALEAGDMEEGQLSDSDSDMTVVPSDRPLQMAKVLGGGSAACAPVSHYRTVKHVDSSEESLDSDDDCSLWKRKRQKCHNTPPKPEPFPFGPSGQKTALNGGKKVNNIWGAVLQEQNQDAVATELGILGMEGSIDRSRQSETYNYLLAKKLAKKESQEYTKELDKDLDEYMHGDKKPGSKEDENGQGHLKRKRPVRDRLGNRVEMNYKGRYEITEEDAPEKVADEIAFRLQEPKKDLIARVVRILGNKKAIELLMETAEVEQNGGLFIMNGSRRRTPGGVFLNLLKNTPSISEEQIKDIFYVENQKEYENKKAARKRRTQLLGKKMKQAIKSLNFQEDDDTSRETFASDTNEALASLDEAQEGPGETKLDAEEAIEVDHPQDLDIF

According to paper PMC12350170, “Structural basis for the synergistic assembly of the snRNA export complex” (Nature Structural & Molecular Biology, 2025):

Columns and labels:
Assay in all cases: proximity labelling; MYC-mTurbo-PHAX variants in HA-dTAG-PHAX mES cells; dTAG^V-1 4 h to deplete endogenous PHAX, 50 µM biotin 4 h; streptavidin beads, western blot of CBP20, CBP80, Ran, CRM1, ARS2
[1] = molecular target: MYC-mTurbo-PHAX R137A (mouse) (mouse) (UniProt Q9JJT9)
[2] = molecular target: MYC-mTurbo-PHAX R49E (mouse) (mouse) (UniProt Q9JJT9)
[3] = molecular target: MYC-mTurbo-PHAX ST2A (mouse; S56A-S57A-S60A-S63A) (mouse) (UniProt Q9JJT9)
[4] = molecular target: MYC-mTurbo-PHAX WT (mouse) (mouse) (UniProt Q9JJT9)
[5] = molecular target: MYC-mTurbo-PHAX Y144E (mouse) (mouse) (UniProt Q9JJT9)

- binding [1]: binds
- binding [2]: binds
- binding [3]: binds
- binding [4]: binds
- binding [5]: binds
B1: Endogenous mouse ARS2 (protein, UniProt Q99MR6 1-875)
chain: MGDSDDEYDRRRRDKFRRERSDYDRSRERDERRRGDDWNDREWDRGRERRSRGEYRDYDRNRRERFSPPRHELSPPQKRMRRDWDEHSSDPYHSGYDMPYAGGGGGPTYGPPQPWGHPDVHIMQHHVLPIQARLGSIAEIDLGVPPPIMKSFKEFLLSLDDSVDETEAVKRYNDYKLDFRRQQMQDFFLAHKDEEWFRSKYHPDEVGKRRQEARGALQNRLKVFLSLMESGWFDNLLLDIDKADAIVKMLDAAVIKMEGGTENDLRILEQEEEEEQAGKTGEASKKEEARAGPALGEGERKANDKDEKKEDGKQAENDSSNDDKTKKSEGDGDKEEKKEEAEKEAKKSKKRNRKQSGDDSFDEGSVSESESESEGGQAEEEKEEAEEALKEKEKPKEEEKEKPKDAAGLECKPRPLHKTCSLFMRNIAPNISRAEIISLCKRYPGFMRVALSEPQPERRFFRRGWVTFDRSVNIKEICWNLQNIRLRECELSPGVNRDLTRRVRNINGITQHKQIVRNDIKLAAKLIHTLDDRTQLWASEPGTPPVPTSLPSQNPILKNITDYLIEEVSAEEEELLGSSGGPPPEEPPKEGNPAEINVERDEKLIKVLDKLLLYLRIVHSLDYYNTCEYPNEDEMPNRCGIIHVRGPMPPNRISHGEVLEWQKTFEEKLTPLLSVRESLSEEEAQKMGRKDPEQEVEKFVTSNTQELGKDKWLCPLSGKKFKGPEFVRKHIFNKHAEKIEEVKKEVAFFNNFLTDAKRPALPEIKPAQPPGPAQILPPGLTPGLPYPHQTPQGLMPYGQPRPPILGYGAGAVRPAVPTGGPPYPHAPYGAGRGNYDAFRGQGGYPGKPRNRMVRGDPRAIVEYRDLDAPDDVDFF

No constants are given. Whether binding was seen depends on the method and setting. In cells and extracts the contact can be indirect. These calls come from enrichment with a bait or labelling near it, and not all partners need be listed.
